## Library screening results

Sequences of proteins named here, by UniProt entry; tags and fusion partners are left off.
UniProt E9BF75, entry or part of it: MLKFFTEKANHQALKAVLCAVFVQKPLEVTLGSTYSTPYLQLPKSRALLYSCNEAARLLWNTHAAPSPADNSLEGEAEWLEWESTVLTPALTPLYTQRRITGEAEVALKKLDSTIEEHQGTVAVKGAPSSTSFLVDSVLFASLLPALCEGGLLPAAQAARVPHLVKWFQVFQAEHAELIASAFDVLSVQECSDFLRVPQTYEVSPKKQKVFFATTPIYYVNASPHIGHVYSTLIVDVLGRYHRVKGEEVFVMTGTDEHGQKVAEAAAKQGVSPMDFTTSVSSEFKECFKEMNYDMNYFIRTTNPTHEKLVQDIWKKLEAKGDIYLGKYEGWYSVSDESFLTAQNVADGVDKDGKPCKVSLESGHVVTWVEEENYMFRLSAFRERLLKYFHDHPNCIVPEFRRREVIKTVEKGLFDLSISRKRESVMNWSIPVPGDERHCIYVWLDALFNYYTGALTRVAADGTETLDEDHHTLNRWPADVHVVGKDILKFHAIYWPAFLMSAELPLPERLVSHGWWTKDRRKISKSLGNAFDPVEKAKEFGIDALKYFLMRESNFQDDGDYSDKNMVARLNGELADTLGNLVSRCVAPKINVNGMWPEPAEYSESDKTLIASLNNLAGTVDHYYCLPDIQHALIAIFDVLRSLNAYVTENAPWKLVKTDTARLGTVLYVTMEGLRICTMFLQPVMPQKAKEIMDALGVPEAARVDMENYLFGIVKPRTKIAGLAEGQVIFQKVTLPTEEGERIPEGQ

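Methionyl-tRNA synthetase (putative), Leishmania donovani (UniProt E9BF75). Primary screen of methionyl-tRNA synthetase; the read-out is not stated. The test concentration is not given. Values are per cent inhibition. About 68,000 compounds were tested under these conditions; 0.035% (about 24) showed 50% or more at least once.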

Results are percentages, as filed. The record does not define 0% and 100%; most values in the screen are far below 50% and negative numbers occur (in some assays of this library far below -100). This is an unselected part of the compounds tested.

- CC(C)n1cc2cc(NC(=O)Cn3cnnn3)ccc2n1 : 22.03%
- Cc1nccn1-c1nccnc1C1CCCN(C)C1 (stereo not given) : 14.53%
- Cc1ccc(OCc2nc(CNCCn3cccn3)cs2)cc1 : 11.27%
- CCc1nc(C)c(C(=O)NCCN2CCC(C)CC2)s1 : 8.711%
- O=C(O)c1c[nH]c2cc(NS(=O)(=O)c3cccc(Cl)c3F)ccc12 : 4.453%
- Cc1cccc(CN2Cc3[nH]nc(COc4cccnc4)c3C2)n1 : 12.8%
- O=C(CC1C=CCC1)Nc1ncn(CC(=O)N2CCCCCC2)n1 (stereo not given) : 11.58%
- Cc1nc(C)n(C2CCCN(C(=O)c3cc(C4CC4)on3)C2)n1 (stereo not given) : 18.2%
- CC(C)CN1CCC2(C=C(C(=O)N(C)C)c3ccccc32)CC1 : 12.99%
- CO[C@@H]1CN(c2ccccc2)S(=O)(=O)[C@@]12CCN(C(=O)N(C)C)C2 : 6.849%
- CC(C)NC(=O)N1CCCCC1c1nnc2n1CCNC2 (stereo not given) : 8%
- COCC1CC2(CCN(c3cccc(C)n3)CC2)CN1C(C)C (stereo not given) : 12.9%
- O=C(NCC(O)Cc1ccccc1)c1ccc2[nH]c(=O)[nH]c2c1 (stereo not given) : 12.06%
- COCC(=O)NCc1cc(=O)n2c(n1)CN(Cc1ccccc1)CCC2 : 20.16%
- CSC1(CNC(=O)NC(C)Cc2cccc(F)c2)CCOCC1 (stereo not given) : 1.863%
- COCCN1CCC12CCN(C(=O)c1ccc3[nH]ccc3c1)C2 (stereo not given) : 10%
- Cc1ccsc1C(O)CNC(=O)Cc1ccc(F)cc1 (stereo not given) : 7.645%
- CC(C(=O)N1CCOCC1)S(=O)(=O)Cc1noc(C(C)(C)C)n1 (stereo not given) : 1.393%
- CNC(=O)CCN1CCCC1c1ccccc1Br (stereo not given) : 3.436%
- CSc1ccc(OC(C)C(=O)Nc2cc(C)n[nH]2)cc1 (stereo not given) : 11.23%
- Cc1cc(CNCc2c(C)nn(C)c2N2CCOCC2)no1 : 13.27%
- CN1CCOC(C(=O)Nc2ccc3[nH]nnc3c2)C1 (stereo not given) : 9.091%
- Cc1cnn(CC2CCCCN2CCCS(N)(=O)=O)c1 (stereo not given) : 6.294%
- O=C(Nc1cnn(CCN2CCOCC2)c1)c1cc(F)ccc1F : 20.41%
- NC(=O)CN1CC2(CCC1=O)CCN(Cc1cc(F)ccc1Cl)CC2 : 14.63%
- CCCS(=O)(=O)N1CCC2(CC1)CCn1c(-c3cnn(C)c3)cnc12 : 9.441%
- CCN(CCn1cccn1)Cc1nc(-c2ccc(F)cc2)oc1C : 13.11%
- COc1ncccc1C(=O)NC1CCOc2ccccc21 (stereo not given) : 12.57%
- COCCc1noc(-c2cn(CCc3ccccc3)nn2)n1 : 9.045%
- c1ccc(CN2CCCC(CNc3ncnc4c3CCNCC4)C2)cc1 (stereo not given) : 32.09%
- CCc1ncc(C(=O)NCCNC(=O)Cc2ccc(F)cc2)s1 : 9.756%
- Cc1noc(C)c1-c1ccnc(C2CCN(S(=O)(=O)N(C)C)CC2)c1 : 9.032%
- CC(C)(C)NC(=O)c1ccn(COc2ccccc2Cl)n1 : 3.116%
- CN(CC(O)C1CC1)C(=O)Nc1ccc(F)c(-n2cccc2)c1 (stereo not given) : 19.22%
- CSC(C)C(=O)NCc1ccnc(N2CCN(C)CC2)c1 (stereo not given) : 15.3%
- CS(=O)(=O)N1CC2(CCN(C3CCCCC3)CC2)Cc2ccccc21 : 10.29%
- Cc1cccc(CN2CCCC2(C(N)=O)c2cnccn2)n1 (stereo not given) : 5.208%
- CCOc1ncccc1C(=O)N1CCCC1Cn1nc(C)cc1C (stereo not given) : 7.937%
- Cn1nccc1C1CCN(Cc2cnn(-c3ccccc3)n2)CC1 : -1.863%
- Cc1[nH]nc2ncc(C(=O)N3CCN(CC(C)(C)O)CC3)cc12 : 10.99%
- Cn1c2ccc(F)cc2c2ncn(CCCN(CCO)CCO)c(=O)c21 : 2.439%
- CC(=O)NC(Cc1c[nH]c2cc(F)ccc12)C(=O)Nc1cnn(C)c1 (stereo not given) : 18.55%
- CC(C)n1ccc2c(NC(=O)c3n[nH]c4c3CCC4)cccc21 : 21.2%
- CCN(Cc1cnn(C)c1)C(=O)c1ccccc1O : 6.425%
- Cc1ccc(CN2CCN(C(=O)c3ccc(Br)o3)CC2)cc1 : 4.632%
- Cc1cc(NCc2cc3n(n2)CCCN(C(=O)C2CCC2)C3)nc(N)n1 : 13.5%
- Cc1cccc(-c2c[nH]c(C3CCCN3C(=O)c3cc(C)n[nH]3)n2)c1 (stereo not given) : 4.032%

The last 4 entries again:

structure	inhibition
CCN(Cc1cnn(C)c1)C(=O)c1ccccc1O	6.425
Cc1ccc(CN2CCN(C(=O)c3ccc(Br)o3)CC2)cc1	4.632
Cc1cc(NCc2cc3n(n2)CCCN(C(=O)C2CCC2)C3)nc(N)n1	13.5
Cc1cccc(-c2c[nH]c(C3CCCN3C(=O)c3cc(C)n[nH]3)n2)c1 (stereo not given)	4.032

Source: ChEMBL document CHEMBL3988442, “University of Dundee, Small-Polar-MMV Screening Library” (2021).